Measurements reported in patent publication US20250129184A1, “TARGETED ANTICOAGULANT” (Northwestern University, priority 2016, published 2025).

Tested on: ePTFE graft in abdominal aorta
Assay: rat abdominal aorta interposition model with ePTFE graft
Type: in vivo, Sprague Dawley rats
Conditions: two intravenous doses, 24 hours
Method: During the development of embodiments of the technology provided herein, experiments were conducted to evaluate the in vivo performance of the heparin-CREKA relative to conventional clinically used heparin. In particular, heparin-CREKA was studied in a rat abdominal aorta interposition model. Briefly, male Sprague Dawley rats (200-500 g) were anesthetized by a ketamine/xylazine cocktail. The abdomen of the anesthetized rat was entered through a midline incision. The abdominal aorta was exposed (FIG. 7, Panel A), clamped in both proximal and distal regions using micro-vessel clips, and then excised between the clamps (FIG. 7, Panel B). A segment (e.g., approximately 1 cm in length; 1.524±0.05 mm in diameter) of expanded polytetrafluoroethylene (ePTFE) was used as a graft. The graft was connected to the abdominal aorta using an end-to-end anastomosis technique with interrupted stitches at each end (FIG. 7, Panel C). Following reperfusion of blood flow through the graft, one dose of anti-coagulant (heparin or heparin-CREKA) was given systemically via intravenous injection. The incision was then closed in layers. 24 hours after the initial implantation surgeries and immediately prior to sacrifice of the test […], a second dose of […] (heparin or heparin-CREKA) was administered systemically via intravenous injection. […]

heparin-CREKA: heparin covalently linked through a BMPH linker to the fibrin binding peptide Cys-Arg-Glu-Lys-Ala (CREKA) (heparin via BMPH linker)
toluidine blue staining of the grafts (heparin detection) (middle_2 graft piece): toluidine staining | CREKA peptides at the graft site (avidin 594 nm staining, IVIS imaging) (proximal and middle_1 graft pieces): observed at the graft site
